Reference: PMC8683493
These are yes or no findings as the source states them, for the method shown. In cells and extracts the contact can be indirect. A result given as binding can be weak or reduced; the word gives no strength. Tags and fused reporters may be left off the sequences shown. Blank lines part the entries; values can stand above or below the molecule they belong to.

Key:
[1] = biological target: T1, NmrA^FLAG (Aspergillus nidulans) (UniProt Q5AU62); experiment: co-IP; reciprocal: lysate of A. nidulans mycelia co-expressing NmrA^FLAG and PnmB^HA, precipitated with anti-FLAG or anti-HA antibody and protein A beads, 4 °C; IP buffer 250 mM NaCl, 100 mM Tris-HCl pH 7.5, 10% glycerol, 1 mM EDTA, 0.1% NP-40; with protease inhibitors including benzamidine; western blot
T1 sequence: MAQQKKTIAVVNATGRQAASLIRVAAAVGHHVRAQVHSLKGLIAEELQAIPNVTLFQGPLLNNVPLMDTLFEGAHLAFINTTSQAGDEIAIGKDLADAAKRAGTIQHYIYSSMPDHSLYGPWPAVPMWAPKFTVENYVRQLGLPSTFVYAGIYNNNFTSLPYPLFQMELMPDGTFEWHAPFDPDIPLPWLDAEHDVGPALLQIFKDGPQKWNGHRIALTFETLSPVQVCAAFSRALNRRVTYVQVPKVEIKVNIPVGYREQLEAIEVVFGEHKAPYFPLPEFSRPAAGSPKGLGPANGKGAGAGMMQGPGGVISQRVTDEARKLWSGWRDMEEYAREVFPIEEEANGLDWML

[2] = biological target: PnmB^HA (Aspergillus nidulans); experiment: as above

binding [1]: binds
Molecule: PnmB^HA (Aspergillus nidulans) (enzyme)

binding [2]: binds
B1: NmrA^FLAG (protein, UniProt Q5AU62 1-352)
chain: T1 sequence
